# Test results from PubChem BioAssay AID2551 (National Center for Advancing Translational Sciences (NCATS), 2010).
# Chains of the proteins cited; added tags and fusions are not shown. Lines headed by an entry give the natural chain unless they say otherwise; changes in a name come on top.
# UniProt P51450: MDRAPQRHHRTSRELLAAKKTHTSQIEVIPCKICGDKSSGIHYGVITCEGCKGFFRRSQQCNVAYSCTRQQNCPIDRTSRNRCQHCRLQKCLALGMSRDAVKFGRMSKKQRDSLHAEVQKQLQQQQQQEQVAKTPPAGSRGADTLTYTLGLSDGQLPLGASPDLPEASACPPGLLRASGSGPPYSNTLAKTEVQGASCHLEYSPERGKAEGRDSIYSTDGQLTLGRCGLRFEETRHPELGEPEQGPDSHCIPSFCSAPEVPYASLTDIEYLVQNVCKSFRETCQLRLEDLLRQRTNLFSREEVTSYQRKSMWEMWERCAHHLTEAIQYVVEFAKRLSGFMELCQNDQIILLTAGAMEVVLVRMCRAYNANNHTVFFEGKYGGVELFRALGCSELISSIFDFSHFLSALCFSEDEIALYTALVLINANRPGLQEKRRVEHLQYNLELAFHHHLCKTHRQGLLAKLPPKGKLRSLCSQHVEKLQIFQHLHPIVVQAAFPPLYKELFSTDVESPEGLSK
# The whole screen tested about 310,000 compounds, of which about 17,000 (5.5%) were called active. Inconclusive results, whose numbers are uncertain, are shown with a selection of clear calls. Calls follow the shape of the dose curve; as a rule, active = well fitted inhibition curve with a large enough effect; inconclusive = small, poorly fitted or top-dose-only effect, or effect the other way; inactive = no such curve, though single readings can be large or run the other way. A potency beside an inconclusive call is a rough fit, not a confirmed value.
# Target: Nuclear receptor ROR-gamma (Mus musculus) (UniProt P51450)
# Assay: qHTS for inhibitors of ROR gamma transcriptional activity; also: nearly all actives have a fitted effect of over 60% in size
# Settings: Drosophila S2 Gal4-RORgamma UAS-luciferase reporter, 20 h; activity change, negative = inhibition: at 53.6 µM (top of the series)
# How it was run: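 ROR gamma transcriptional activity was tracked as Gal4-UAS luciferase output in stably transfected Drosophila Schneider cells, with compound added 1 hr before 700 uM copper sulfate induction and a 20 hr ambient-temperature incubation.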
# % is scaled to controls: 0 for no effect and ±100 for the full control effect; potency is read from the fitted curve at half-maximal effect.
Compound,Potency,"activity change, negative = inhibition"
C=CCN1C(=O)C(Cc2ccccc2)SC1=Nc1ccc(C(=O)O)cc1 (configuration not stated),"inconclusive: 12.6 µM [activator, single point]",
CCOC(=O)CS(=O)(=O)c1nc(-c2ccc(F)cc2)cc(C(F)(F)F)n1,active: 5.62 µM,
CN(C)S(=O)(=O)c1ccc(C(=O)Nc2ccc(S(=O)(=O)NC3=NCCCCC3)cc2)cc1,,inactive: -3.23%
CC1CN(C(=O)CCC(=O)NCc2ccccc2)c2cc(Cl)ccc2O1 (configuration not stated),,inactive: 13.5%
Cc1[nH]nc2c1C1(CCN(C(=O)OCc3ccccc3)CC1)C(C#N)=C(N)O2,active: 5.01 µM,
CC(=O)c1sc(NC(=O)COc2ccc(C)c(C)c2)nc1C,,inactive: -2.87%
Cc1ccc(NC(=O)c2cnn(-c3ccccc3)c2C)cc1,"inconclusive: 11.2 µM [inhibitor, single point]",
COc1cccc(CNC(=O)C(CC(C)C)NC(=O)c2ccccc2C)c1 (configuration not stated),"inconclusive: 6.31 µM [activator, single point]",
CCOc1ccc(/C=C/C(=O)Nc2ccc(C(N)=O)cc2)cc1OC,,inactive: 3.28%
CCn1c(=O)cc(OCC(=O)Nc2cccnc2)c2ccccc21,"inconclusive: 3.55 µM [inhibitor, partial curve]",
CCOCCCn1c(SCC(=O)Nc2ccccc2OC)nc2ccccc2c1=O,"inconclusive: 20 µM [activator, single point]",
C=CCNC(=O)C1CC(=O)N(c2ccc(OCC(=O)Nc3cccc(OC)c3)cc2)C1 (configuration not stated),,inactive: 29.2%
O=C(O)c1cccc(Oc2ncnc3sc4c(c23)CCCC4)c1,"inconclusive: 2.51 µM [inhibitor, full curve]",
Cc1ccc(NC(=S)NCC(O)c2ccccc2)c(C)c1 (configuration not stated),,inactive: -77.6%
Cn1cc(-c2nnnn2-c2cccc(C(F)(F)F)c2)c(C(F)(F)F)n1,active: 10 µM,
C=CCc1ccc(OCC(O)COCC)c(OC)c1 (configuration not stated),"inconclusive: 0.316 µM [activator, full curve, poor fit]",
Cc1ccc(NC2CCCCC2NS(=O)(=O)c2ccccc2)c(C)c1 (configuration not stated),"inconclusive: 35.5 µM [activator, single point]",
O=C(CCCn1c(=S)[nH]c2ccccc2c1=O)NC1CCCCC1,"inconclusive: 11.2 µM [inhibitor, single point]",
CC1CCCCC1NC(=O)CO/N=C/c1ccccc1OC(F)F (configuration not stated),,inactive: -5.6% [at 10 µM]
O=C(/C=C\Nc1ccccn1)c1ccccc1,active: 5.01 µM,
COc1cc2c(cc1OC)C(=S)NC1(CCCC1)C2,active: 2 µM,
CN1C(=O)C2(OCC(COc3ccc(Cl)cc3)O2)c2ccccc21 (configuration not stated),"inconclusive: 25.1 µM [activator, single point]",

# A stretch from further up, for reference:
Compound,Potency,"activity change, negative = inhibition"
CC(=O)c1sc(NC(=O)COc2ccc(C)c(C)c2)nc1C,,inactive: -2.87%
Cc1ccc(NC(=O)c2cnn(-c3ccccc3)c2C)cc1,"inconclusive: 11.2 µM [inhibitor, single point]",
